At least one structure is not confirmed: it was looked up by name or label, or the drawing left a doubt.
Test system: primary care patients with major depression disorder
Assay: 8-week, double-blind, randomised, placebo-controlled, flexible-dose clinical study
Type: in vivo
Source text: This has i.a. been found in the Chronic Mild Stress model (Willner P., Psychopharmachology 1997, 134, 319-329).
A total of 471 patients were randomised into the study. The all-patient-treated set comprised 469 patients and the full-analysis set comprised 468 patients.
There was an approximately 3 to 1 ratio of women to men in each treatment group, and almost all patients were Caucasian. The mean age was 43 years (SD 11). At baseline, the mean MADRS total score was approximately 29 for the treatment group, which signifies moderate to severely ill patients.

CN(C)CCCC1(c2ccc(F)cc2)OCc2cc(C#N)ccc21 (racemic) [citalopram, reference compound]
onset of effect (10 mg escitalopram, 20 mg citalopram, versus placebo): did not show significant effect
CGI improvement and severity subscale versus placebo (Week 4, last observation carried forward): no statistically significant difference
CGI improvement and severity subscale versus placebo (from Week 1 onwards, 4-week period, observed cases): not statistically different from placebo
